Data reported in paper PMC6152322, “Synthesis and Evaluation of New Oxadiazole, Thiadiazole, and Triazole Derivatives as Potential Anticancer Agents Targeting MMP-9” (Molecules : A Journal of Synthetic Chemistry and Natural …, 2017).
Values joined by “and” are separate entries in the source; they are usually repeats but may differ in a detail not shown here. Equal entries are not always repeated.

Assays:
[1] = system: A549 human lung adenocarcinoma cell line; assay: XTT cytotoxicity assay on A549 cells; format: cell-based; conditions: SI = IC50 for NIH/3T3 / IC50 for A549 × 100; >value taken as the value itself
Excerpt: (§1) NIH/3T3 Mouse embryonic fibroblast (ATCC® CRL-1658™, American Type Culture Collection (ATCC), Manassas, VA, USA), A549 human lung adenocarcinoma (ATCC® CCL-185™, American Type Culture Collection (ATCC), Manassas, VA, USA) and C6 rat glioma (ATCC® CCL-107™, American Type Culture Collection (ATCC), Manassas, VA, USA) cell lines were used for cytotoxicity tests. NIH/3T3 cell line was used to investigate the selectivity of the compounds, whereas other cell lines were used to determine anticancer activity. All cell lines were incubated according to the instructions of the supplier at 37 °C in a humidified atmosphere of 95% air and 5% CO2. NIH/3T3, A549 and C6 cells were seeded at 1 × 10^4 cells into each well of 96-well plate. After 24 h of incubating period, the culture mediums were removed and compound was added to culture medium at 500–3.9 μg/mL doses with a dilution factor of 2 (3.9, 7.8, 15.6, 31.2, 62.5, 125, 250, 500 μg/mL). After 24 h of incubation, XTT (2,3-bis(2-methoxy-4-nitro-5-sulfophenyl)-2H-tetrazolium-5-carboxanilide) assay was performed using the In Cytotox-XTT 1 Parameter Cytotoxicity Kit (Xenometrix, Allschwil, Switzerland) as previously described. […] All experiments were done in quadruplicates at three different time points, and the results were given as Mean ± standard deviation. Cisplatin was used as a positive control. The stock solutions of the compounds were prepared in dimethyl sulfoxide (DMSO) and further dilutions were made with fresh culture medium. The final DMSO concentration was under 0.1%.
(§2) Inhibition%=100−( corrected mean OD sample/corrected mean OD solvent controls ×100)

C6 rat glioma cell line = assay: XTT cytotoxicity assay on C6 cells; format: cell-based; conditions: SI = IC50 for NIH/3T3 / IC50 for C6 × 100; >value taken as the value itself
Excerpt: as §1, §2

Structure (SMILES)	SI Values A549 [1]	SI Values C6 (C6 rat glioma cell line)
COc1ccc(OCc2nnc(SCC(=O)NCc3ccc4c(c3)OCO4)o2)cc1 [Compound 7, N-(1,3-Benzodioxol-5-ylmethyl)-2-{[5-((4-methoxyphenoxy)methyl)-1,3,4-oxadiazol-2-yl]thio}acetamide]	8.576	8.576
Nn1c(COc2ccccc2)nnc1SCC(=O)N1CCOCC1 [Compound 2, 2-{[4-Amino-5-(phenoxymethyl)-4H-1,2,4-triazol-3-yl]thio}-1-morpholinoethan-1-one]	98.673	98.673
O=C(CSc1nnc(COc2ccc3c(c2)CCCC3)o1)NCc1ccc2c(c1)OCO2 [Compound 8, N-(1,3-Benzodioxol-5-ylmethyl)-2-{[5-(((5,6,7,8-tetrahydronaphthalen-2-yl)oxy)methyl)-1,3,4-oxadiazol-2-yl]thio}acetamide]	883.2	805.8 and 805.839
N.N.[Cl][Pt][Cl] [Cisplatin, reference compound]	1190	1617.476
Nn1c(COc2ccccc2)nnc1SCC(=O)NCc1ccc2c(c1)OCO2 [Compound 6, 2-{[4-Amino-5-(phenoxymethyl)-4H-1,2,4-triazol-3-yl]thio}-N-(1,3-benzodioxol-5-ylmethyl)acetamide]	100	100
O=C(CSc1nnc(Nc2ccc(Cl)cc2Cl)s1)N1CCOCC1 [Compound 1, 2-{[5-((2,4-Dichlorophenyl)amino)-1,3,4-thiadiazol-2-yl]thio}-1-morpholinoethan-1-one]	24.959	240.625
O=C(CSc1nnc(-c2ccccc2)o1)NCc1ccc2c(c1)OCO2 [Compound 9, N-(1,3-Benzodioxol-5-ylmethyl)-2-[(5-phenyl-1,3,4-oxadiazol-2-yl)thio]acetamide]	254.441	565.6 and 565.605
COc1ccc(OCc2nnc(SCC(=O)N3CCOCC3)o2)cc1 [Compound 3, 2-{[5-((4-Methoxyphenoxy)methyl)-1,3,4-oxadiazol-2-yl]thio}-1-morpholinoethan-1-one]	100	270.018
O=C(CSc1nnc(Nc2ccc(Cl)cc2Cl)s1)NCc1ccc2c(c1)OCO2 [Compound 5, N-(1,3-Benzodioxol-5-ylmethyl)-2-{[5-((2,4-dichlorophenyl)amino)-1,3,4-thiadiazol-2-yl]thio}acetamide]	100	100
